Results taken from patent US20210253643A1 (The University of British Columbia, priority 2018, published 2021).
Strings that start with PEPTIDE1 are HELM notation: dots part the residues, brackets hold end groups and non-standard residues. No end group written: not given here.

Experiment: peptide synthesis
Conditions: whole synthesis

| Substance | purity (crude or final not stated) |
| --- | --- |
| DWLKAFYDKVAEKLKEAAPDWFKAFYDKVAEKFKEAF | 82% |
| PEPTIDE1{F.A.E.K.F.K.E.A.V.K.D.Y.F.A.K.F.W.D.P.A.A.E.K.L.K.E.A.V.K.D.Y.F.A.K.L.W.D}$$$$V2.0 | 85% |
